Here are results for one molecule from article PMC8719622.

Amino acid sequences for entries named in this document (tags omitted).
UniProt Q9UGL1: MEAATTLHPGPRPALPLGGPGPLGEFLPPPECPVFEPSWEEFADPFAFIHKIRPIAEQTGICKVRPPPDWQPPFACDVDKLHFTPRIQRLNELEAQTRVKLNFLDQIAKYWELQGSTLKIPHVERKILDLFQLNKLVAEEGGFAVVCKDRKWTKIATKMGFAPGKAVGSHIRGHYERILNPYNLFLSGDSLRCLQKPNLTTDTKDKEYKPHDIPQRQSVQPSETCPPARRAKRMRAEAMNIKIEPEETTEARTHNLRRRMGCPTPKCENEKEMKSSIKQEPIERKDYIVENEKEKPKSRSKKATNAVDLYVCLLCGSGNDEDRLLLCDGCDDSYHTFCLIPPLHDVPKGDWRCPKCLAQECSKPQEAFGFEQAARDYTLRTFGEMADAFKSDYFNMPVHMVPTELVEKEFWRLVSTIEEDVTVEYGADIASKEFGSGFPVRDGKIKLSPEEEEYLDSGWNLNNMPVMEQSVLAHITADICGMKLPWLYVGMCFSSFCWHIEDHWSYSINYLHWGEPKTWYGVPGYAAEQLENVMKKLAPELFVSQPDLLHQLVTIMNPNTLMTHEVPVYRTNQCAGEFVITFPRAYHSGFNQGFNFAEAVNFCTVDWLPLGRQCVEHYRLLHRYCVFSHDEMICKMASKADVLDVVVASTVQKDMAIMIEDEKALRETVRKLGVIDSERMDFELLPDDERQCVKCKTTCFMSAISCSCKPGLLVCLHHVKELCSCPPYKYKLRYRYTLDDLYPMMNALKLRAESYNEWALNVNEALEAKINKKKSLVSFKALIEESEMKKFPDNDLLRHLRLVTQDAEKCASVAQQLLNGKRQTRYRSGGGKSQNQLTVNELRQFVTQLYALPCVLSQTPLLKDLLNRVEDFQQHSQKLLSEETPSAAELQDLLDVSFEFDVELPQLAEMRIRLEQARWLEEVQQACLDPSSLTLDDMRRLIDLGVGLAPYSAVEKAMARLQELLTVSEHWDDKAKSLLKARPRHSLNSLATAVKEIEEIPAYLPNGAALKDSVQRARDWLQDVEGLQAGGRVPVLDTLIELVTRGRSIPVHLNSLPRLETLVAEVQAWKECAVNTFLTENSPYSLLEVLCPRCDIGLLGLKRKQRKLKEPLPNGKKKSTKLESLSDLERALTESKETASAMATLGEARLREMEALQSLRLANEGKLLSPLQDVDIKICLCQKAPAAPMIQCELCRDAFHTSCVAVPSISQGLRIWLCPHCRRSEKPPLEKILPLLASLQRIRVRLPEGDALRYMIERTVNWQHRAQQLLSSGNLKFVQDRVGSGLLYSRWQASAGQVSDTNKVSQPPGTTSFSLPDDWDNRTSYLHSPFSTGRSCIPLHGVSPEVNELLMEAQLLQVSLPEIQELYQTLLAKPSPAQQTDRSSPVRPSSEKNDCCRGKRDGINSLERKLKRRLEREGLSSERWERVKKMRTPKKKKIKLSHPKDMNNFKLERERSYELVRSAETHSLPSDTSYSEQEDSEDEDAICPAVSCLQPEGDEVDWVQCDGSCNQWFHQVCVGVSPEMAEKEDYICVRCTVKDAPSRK

These are yes or no findings as the source states them, for the method shown. In cells and extracts the contact can be indirect. Some binding calls cover weakened binding; strength is not graded here. Where a sequence is shown, tags or fusion partners need not be part of it.

For assay [1], the target named is FLAG-KDM5B (lysine-specific demethylase 5B) (UniProt Q9UGL1). In words: proximity ligation; Duolink in situ PLA in fixed, permeabilised HEK293T co-transfected with FLAG-KDM5B and HA-PIAS4; mouse anti-FLAG and rabbit anti-PIAS4; red fluorescent spots.
For assay [2] the target is unchanged. Description: co-IP; HEK293T co-transfected with FLAG-KDM5B and HA-PIAS4; lysis in Triton buffer (50 mM Tris-HCl pH 7.4, 150 mM NaCl, 1% Triton X-100); FLAG or HA antibody (IgG as negative control), protein A/G sepharose, the other tag by Western blot; under normoxia and under hypoxia (1% O2), interaction enhanced by hypoxia.

B1: HA-PIAS4 (protein inhibitor of activated STAT 4) (protein, UniProt Q8N2W9 1-510)
chain: MAAELVEAKNMVMSFRVSDLQMLLGFVGRSKSGLKHELVTRALQLVQFDCSPELFKKIKELYETRYAKKNSEPAPQPHRPLDPLTMHSTYDRAGAVPRTPLAGPNIDYPVLYGKYLNGLGRLPAKTLKPEVRLVKLPFFNMLDELLKPTELVPQNNEKLQESPCIFALTPRQVELIRNSRELQPGVKAVQVVLRICYSDTSCPQEDQYPPNIAVKVNHSYCSVPGYYPSNKPGVEPKRPCRPINLTHLMYLSSATNRITVTWGNYGKSYSVALYLVRQLTSSELLQRLKTIGVKHPELCKALVKEKLRLDPDSEIATTGVRVSLICPLVKMRLSVPCRAETCAHLQCFDAVFYLQMNEKKPTWMCPVCDKPAPYDQLIIDGLLSKILSECEDADEIEYLVDGSWCPIRAEKERSCSPQGAILVLGPSDANGLLPAPSVNGSGALGSTGGGGPVGSMENGKPGADVVDLTLDSSSSSEDEEEEEEEEEDEDEEGPRPKRRCPFQKGLVPAC
In the case of B1, the binding entry in assay [1] and in assay [2] was “binds” throughout.
